Reference: article PMC7966362

Chains of the proteins cited; added tags and fusions are not shown.
UniProt Q80SW1: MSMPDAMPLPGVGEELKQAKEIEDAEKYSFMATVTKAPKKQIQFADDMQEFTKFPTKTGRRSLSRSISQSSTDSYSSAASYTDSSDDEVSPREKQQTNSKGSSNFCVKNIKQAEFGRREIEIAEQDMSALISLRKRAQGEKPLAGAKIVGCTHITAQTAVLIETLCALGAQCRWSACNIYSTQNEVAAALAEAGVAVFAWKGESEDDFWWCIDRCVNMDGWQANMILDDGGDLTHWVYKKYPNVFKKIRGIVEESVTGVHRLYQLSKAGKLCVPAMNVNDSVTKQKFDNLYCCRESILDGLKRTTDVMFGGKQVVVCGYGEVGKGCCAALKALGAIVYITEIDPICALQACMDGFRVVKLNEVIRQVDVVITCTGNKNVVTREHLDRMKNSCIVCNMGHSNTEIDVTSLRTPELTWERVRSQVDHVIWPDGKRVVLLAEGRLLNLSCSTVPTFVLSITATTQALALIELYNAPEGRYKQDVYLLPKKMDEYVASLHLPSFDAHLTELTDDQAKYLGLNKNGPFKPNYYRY

Tests used:
[1] = target: T1, HA-tagged AE2 wild type (full length, mouse) (mouse) (UniProt P13808); experiment: co-IP; HEK 293T cells transfected with tagged constructs; lysis buffer 10 mM HEPES pH 7.4, 100 mM NaCl, 2 mM EDTA, 0.1% Triton X-100, 10 mM sodium fluoride; antibodies and Protein G overnight at 4 °C; immunoblot
T1 sequence: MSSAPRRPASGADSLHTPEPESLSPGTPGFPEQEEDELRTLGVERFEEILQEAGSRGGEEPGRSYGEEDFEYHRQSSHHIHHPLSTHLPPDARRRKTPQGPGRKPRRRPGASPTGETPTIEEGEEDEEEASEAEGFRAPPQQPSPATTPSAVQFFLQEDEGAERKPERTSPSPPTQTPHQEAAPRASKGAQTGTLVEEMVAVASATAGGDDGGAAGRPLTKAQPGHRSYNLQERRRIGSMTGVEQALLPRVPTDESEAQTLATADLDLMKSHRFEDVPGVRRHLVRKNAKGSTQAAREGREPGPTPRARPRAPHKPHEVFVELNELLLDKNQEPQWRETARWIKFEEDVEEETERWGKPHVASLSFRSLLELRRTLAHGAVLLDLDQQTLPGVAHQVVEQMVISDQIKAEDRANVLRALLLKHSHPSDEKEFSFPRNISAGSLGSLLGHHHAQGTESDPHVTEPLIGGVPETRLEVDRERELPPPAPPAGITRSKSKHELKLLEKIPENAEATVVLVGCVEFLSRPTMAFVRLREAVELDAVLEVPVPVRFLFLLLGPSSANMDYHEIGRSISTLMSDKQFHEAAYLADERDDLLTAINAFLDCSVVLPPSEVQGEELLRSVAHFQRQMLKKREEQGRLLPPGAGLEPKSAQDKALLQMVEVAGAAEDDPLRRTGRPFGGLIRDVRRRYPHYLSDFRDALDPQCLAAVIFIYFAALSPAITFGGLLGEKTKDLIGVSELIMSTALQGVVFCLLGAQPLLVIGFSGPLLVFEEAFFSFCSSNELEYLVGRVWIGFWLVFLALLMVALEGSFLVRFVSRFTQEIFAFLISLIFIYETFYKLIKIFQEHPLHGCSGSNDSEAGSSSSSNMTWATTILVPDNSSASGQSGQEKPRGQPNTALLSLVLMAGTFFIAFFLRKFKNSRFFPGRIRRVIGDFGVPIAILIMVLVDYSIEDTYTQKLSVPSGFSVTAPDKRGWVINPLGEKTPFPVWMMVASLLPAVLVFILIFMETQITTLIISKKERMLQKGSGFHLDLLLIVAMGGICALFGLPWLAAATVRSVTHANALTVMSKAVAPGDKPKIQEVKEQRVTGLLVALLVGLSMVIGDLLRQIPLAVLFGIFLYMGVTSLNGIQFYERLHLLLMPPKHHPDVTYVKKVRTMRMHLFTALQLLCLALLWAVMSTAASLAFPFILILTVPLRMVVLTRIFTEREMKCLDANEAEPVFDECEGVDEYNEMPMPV

[2] = target: FLAG-tagged IRBIT wild type (UniProt Q80SW1); experiment: as above
[3] = target: T2, GST-tagged AE2-aa1-111 (mouse) (UniProt P13808); experiment: pull-down; purified MBP or MBP fusion protein from E. coli incubated with GST or GST fusion protein on Glutathione Sepharose 4B, 4 h at 4 °C; immunoblot with anti-MBP antibody; both purified
T2 sequence: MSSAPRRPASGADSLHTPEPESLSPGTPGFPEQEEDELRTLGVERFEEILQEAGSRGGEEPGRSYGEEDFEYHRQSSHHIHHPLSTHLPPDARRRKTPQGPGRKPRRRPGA

[4] = target: FLAG-tagged L-IRBIT wild type (full length); experiment: co-IP; HEK 293T cells transfected with tagged constructs; lysis buffer 10 mM HEPES pH 7.4, 100 mM NaCl, 2 mM EDTA, 0.1% Triton X-100, 10 mM sodium fluoride; antibodies and Protein G overnight at 4 °C; immunoblot

Molecule: FLAG-tagged L-IRBIT (aa 185–610) (domain or fragment)
binding [1]: binds

Molecule: FLAG-tagged L-IRBIT-aa1-184 (domain or fragment)
binding [1]: no binding

Molecule: FLAG-tagged L-IRBIT-aa107-610 (domain or fragment)
binding [1]: binds

Molecule: HA-tagged AE2 mutant (aa 78–82), full length (from UniProt P13808)
binding [2]: binds weakly

The next lines start with the values.

binding [1]: no binding
Molecule: FLAG-tagged L-IRBIT-aa1-307 (domain or fragment)

binding [3]: binds
Molecule: MBP-tagged L-IRBIT-aa185-610 (domain or fragment)

binding [4]: no binding
B1: GFP-tagged AE2 lacking aa 76–524 (protein, UniProt P13808)
chain: MSSAPRRPASGADSLHTPEPESLSPGTPGFPEQEEDELRTLGVERFEEILQEAGSRGGEEPGRSYGEEDFEYHRQRPTMAFVRLREAVELDAVLEVPVPVRFLFLLLGPSSANMDYHEIGRSISTLMSDKQFHEAAYLADERDDLLTAINAFLDCSVVLPPSEVQGEELLRSVAHFQRQMLKKREEQGRLLPPGAGLEPKSAQDKALLQMVEVAGAAEDDPLRRTGRPFGGLIRDVRRRYPHYLSDFRDALDPQCLAAVIFIYFAALSPAITFGGLLGEKTKDLIGVSELIMSTALQGVVFCLLGAQPLLVIGFSGPLLVFEEAFFSFCSSNELEYLVGRVWIGFWLVFLALLMVALEGSFLVRFVSRFTQEIFAFLISLIFIYETFYKLIKIFQEHPLHGCSGSNDSEAGSSSSSNMTWATTILVPDNSSASGQSGQEKPRGQPNTALLSLVLMAGTFFIAFFLRKFKNSRFFPGRIRRVIGDFGVPIAILIMVLVDYSIEDTYTQKLSVPSGFSVTAPDKRGWVINPLGEKTPFPVWMMVASLLPAVLVFILIFMETQITTLIISKKERMLQKGSGFHLDLLLIVAMGGICALFGLPWLAAATVRSVTHANALTVMSKAVAPGDKPKIQEVKEQRVTGLLVALLVGLSMVIGDLLRQIPLAVLFGIFLYMGVTSLNGIQFYERLHLLLMPPKHHPDVTYVKKVRTMRMHLFTALQLLCLALLWAVMSTAASLAFPFILILTVPLRMVVLTRIFTEREMKCLDANEAEPVFDECEGVDEYNEMPMPV

binding [4]: binds weakly
B2: GFP-tagged AE2 lacking aa 199–347 (protein, UniProt P13808)
chain: MSSAPRRPASGADSLHTPEPESLSPGTPGFPEQEEDELRTLGVERFEEILQEAGSRGGEEPGRSYGEEDFEYHRQSSHHIHHPLSTHLPPDARRRKTPQGPGRKPRRRPGASPTGETPTIEEGEEDEEEASEAEGFRAPPQQPSPATTPSAVQFFLQEDEGAERKPERTSPSPPTQTPHQEAAPRASKGAQTGTLVEEDVEEETERWGKPHVASLSFRSLLELRRTLAHGAVLLDLDQQTLPGVAHQVVEQMVISDQIKAEDRANVLRALLLKHSHPSDEKEFSFPRNISAGSLGSLLGHHHAQGTESDPHVTEPLIGGVPETRLEVDRERELPPPAPPAGITRSKSKHELKLLEKIPENAEATVVLVGCVEFLSRPTMAFVRLREAVELDAVLEVPVPVRFLFLLLGPSSANMDYHEIGRSISTLMSDKQFHEAAYLADERDDLLTAINAFLDCSVVLPPSEVQGEELLRSVAHFQRQMLKKREEQGRLLPPGAGLEPKSAQDKALLQMVEVAGAAEDDPLRRTGRPFGGLIRDVRRRYPHYLSDFRDALDPQCLAAVIFIYFAALSPAITFGGLLGEKTKDLIGVSELIMSTALQGVVFCLLGAQPLLVIGFSGPLLVFEEAFFSFCSSNELEYLVGRVWIGFWLVFLALLMVALEGSFLVRFVSRFTQEIFAFLISLIFIYETFYKLIKIFQEHPLHGCSGSNDSEAGSSSSSNMTWATTILVPDNSSASGQSGQEKPRGQPNTALLSLVLMAGTFFIAFFLRKFKNSRFFPGRIRRVIGDFGVPIAILIMVLVDYSIEDTYTQKLSVPSGFSVTAPDKRGWVINPLGEKTPFPVWMMVASLLPAVLVFILIFMETQITTLIISKKERMLQKGSGFHLDLLLIVAMGGICALFGLPWLAAATVRSVTHANALTVMSKAVAPGDKPKIQEVKEQRVTGLLVALLVGLSMVIGDLLRQIPLAVLFGIFLYMGVTSLNGIQFYERLHLLLMPPKHHPDVTYVKKVRTMRMHLFTALQLLCLALLWAVMSTAASLAFPFILILTVPLRMVVLTRIFTEREMKCLDANEAEPVFDECEGVDEYNEMPMPV

binding [4]: no binding
B3: GFP-tagged AE2 lacking aa 76–347 (protein, UniProt P13808)
chain: MSSAPRRPASGADSLHTPEPESLSPGTPGFPEQEEDELRTLGVERFEEILQEAGSRGGEEPGRSYGEEDFEYHRQDVEEETERWGKPHVASLSFRSLLELRRTLAHGAVLLDLDQQTLPGVAHQVVEQMVISDQIKAEDRANVLRALLLKHSHPSDEKEFSFPRNISAGSLGSLLGHHHAQGTESDPHVTEPLIGGVPETRLEVDRERELPPPAPPAGITRSKSKHELKLLEKIPENAEATVVLVGCVEFLSRPTMAFVRLREAVELDAVLEVPVPVRFLFLLLGPSSANMDYHEIGRSISTLMSDKQFHEAAYLADERDDLLTAINAFLDCSVVLPPSEVQGEELLRSVAHFQRQMLKKREEQGRLLPPGAGLEPKSAQDKALLQMVEVAGAAEDDPLRRTGRPFGGLIRDVRRRYPHYLSDFRDALDPQCLAAVIFIYFAALSPAITFGGLLGEKTKDLIGVSELIMSTALQGVVFCLLGAQPLLVIGFSGPLLVFEEAFFSFCSSNELEYLVGRVWIGFWLVFLALLMVALEGSFLVRFVSRFTQEIFAFLISLIFIYETFYKLIKIFQEHPLHGCSGSNDSEAGSSSSSNMTWATTILVPDNSSASGQSGQEKPRGQPNTALLSLVLMAGTFFIAFFLRKFKNSRFFPGRIRRVIGDFGVPIAILIMVLVDYSIEDTYTQKLSVPSGFSVTAPDKRGWVINPLGEKTPFPVWMMVASLLPAVLVFILIFMETQITTLIISKKERMLQKGSGFHLDLLLIVAMGGICALFGLPWLAAATVRSVTHANALTVMSKAVAPGDKPKIQEVKEQRVTGLLVALLVGLSMVIGDLLRQIPLAVLFGIFLYMGVTSLNGIQFYERLHLLLMPPKHHPDVTYVKKVRTMRMHLFTALQLLCLALLWAVMSTAASLAFPFILILTVPLRMVVLTRIFTEREMKCLDANEAEPVFDECEGVDEYNEMPMPV

These are yes or no findings as the source states them, for the method shown. A result given as binding can be weak or reduced; the word gives no strength. For part of these data: Sequences can lack the tags named with a protein. For part of these data: In cells and extracts the contact can be indirect. One block for each molecule: values may come before it.
